Measured values reported in doi:10.1101/2024.10.25.620210.
Results are given in words; binding and its absence hold for the method and conditions named. Binding seen in cells or lysates may run through a third protein. Here binding means that the protein was enriched with, or labelled near, the bait; the list need not be complete. For some assays here: Sequences can lack the tags named with a protein.

T1: stλP8 (cTP8-2xStrep-HA-TurboID-A10 linker-PAP8) (Arabidopsis thaliana) (UniProt Q9XI19)
T1 sequence: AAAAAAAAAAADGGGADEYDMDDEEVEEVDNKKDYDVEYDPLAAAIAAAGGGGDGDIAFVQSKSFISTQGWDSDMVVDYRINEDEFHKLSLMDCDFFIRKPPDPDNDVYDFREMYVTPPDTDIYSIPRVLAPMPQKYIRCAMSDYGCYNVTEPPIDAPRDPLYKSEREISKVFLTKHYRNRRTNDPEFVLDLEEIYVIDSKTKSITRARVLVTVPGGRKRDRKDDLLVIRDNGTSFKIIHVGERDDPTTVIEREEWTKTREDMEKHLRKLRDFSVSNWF

T2: sP8 (cTP8-2xStrep-PAP8) (Arabidopsis thaliana) (UniProt Q9XI19)
T2 sequence: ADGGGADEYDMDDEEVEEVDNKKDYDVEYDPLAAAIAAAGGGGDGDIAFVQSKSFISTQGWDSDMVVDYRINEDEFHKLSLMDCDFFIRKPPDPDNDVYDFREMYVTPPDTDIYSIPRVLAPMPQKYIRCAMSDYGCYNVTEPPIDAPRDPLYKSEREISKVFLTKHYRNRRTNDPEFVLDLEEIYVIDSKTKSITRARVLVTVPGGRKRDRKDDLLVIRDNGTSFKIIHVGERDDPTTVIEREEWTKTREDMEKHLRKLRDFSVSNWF

B1: PAP6 of Arabidopsis thaliana (protein, UniProt Q9M394 39-471)
chain: ASINGSGITNGAAAETTSKPSRKGRKKKQTSTVIEKDNTETDPELNPELADYDDGIEFPYDDPPLVCCFGAVQKEFVPVVRVHDNPMHPDMYSQWKMLQWDPPEFGRAPGGPPSNVAISHVRLGGRAAFMGKVGEDDFGDELVLMMNQERVQTRAVKFDENSKTACTRVKIKFKDGKMMAETVKEPPEDSLFASELNLAVLKEARIFHFNSEVLTSPTMQSTLFTAIQWSKKFGGLIFFDLNLPLPLWRSRNETRKLIKKAWNEANIIEVSQQELEFLLDEDYYERRRNYTPQYFAEDFDQTKNRRDYYHYTPEEIKSLWHDKLKLLVVTDGTLRLHYYTPTFDGVVIGTEDVLITPFTCDRTGSGDAVVAGIMRKLTTCPEMFEDQDVMERQLRFAVAAGIIAQWTIGAVRGFPTESATQNLKEQVYVPSMW
B2: PAP5 of Arabidopsis thaliana (protein, UniProt F4IHY7 31-527)
chain: VKCGFPLKTLHAGITSRDRSLRHCIKCKKEDGDGDVSEGSKKSEEGFEYVTVERHPYHSYMDSTSGKLEPASGARASIPGEDYWPEGTSSRVRAARAPQPAGESSSFPSYGKNPGSRRKKNRKATEENVTVETNDEVSDSEDSSEEEENDSSDGFVTYKNEFEREEEETGFELDKKLGRPHPFIDPTKKKQIEKTLTSDESWWNWRKPEKEQWSRWQRRRPDVETVFLKAMAETGQVKLYGEEPTLTETSLYRARRHLFKEERLQAERERLAKEGPMAFYSEWVKAWKRDTSREAVQKHFEETGEDENTQLIEMFSHQTDREYRIMMGTDIRIKRDPLAMRMREDQIKQIWGGDPVYPTINYIQDPNAVMDFRGPDFHEPTPNMLSYLKENGKVISREMHEALLTKEKTEQLEVPDMDDAMAQAVDIGENDDDEDDADVEKDDEKVPRNWSVLKETPELRTAKPKPKKEGRMSLDEAVDDAENLTDFLMDFEEETDP
B3: PAP4 of Arabidopsis thaliana (protein, UniProt Q9FMX0 42-263)
chain: GGLKVEAYYGLKTPPYPLDALEPYMSRRTLEVHWGKHHRGYVDNLNKQLGKDDRLYGYTMEELIKATYNNGNPLPEFNNAAQVYNHDFFWESMQPGGGDTPQKGVLEQIDKDFGSFTNFREKFTNAALTQFGSGWVWLVLKREERRLEVVKTSNAINPLVWDDIPIICVDVWEHSYYLDYKNDRAKYINTFLNHLVSWNAAMSRMARAEAFVNLGEPNIPIA
B4: PAP3 of Arabidopsis thaliana (protein, UniProt F4JF21 41-668)
chain: GFSSDEFPVDETFLEKFGPKDKDTEDEARRRNWIERGWAPWEEILTPEADFARKSLNEGEEVPLQSPEAIEAFKMLRPSYRKKKIKEMGITEDEWYAKQFEIRGDKPPPLETSWAGPMVLRQIPPRDWPPRGWEVDRKELEFIREAHKLMAERVWLEDLDKDLRVGEDATVDKMCLERFKVFLKQYKEWVEDNKDRLEEESYKLDQDFYPGRRKRGKDYEDGMYELPFYYPGMVCEGTVTTLHLYQGAFVDIGGVHEGWVPIKGNDWFWIRHFIKVGMHVIVEITAKRDPYRFRFPLELRFVHPNIDHMIFNKFDFPPIFHRDGDTNPDEIRRDCGRPPEPRKDPGSKPEEEGLLSDHPYVDKLWQIHVAEQMILGDYEANPAKYEGKKLSELSDDEDFDEQKDIEYGEAYYKKTKLPKVILKTSVKELDLEAALTERQHHNKLMMEAKARGEGYKIDKLRRNIEMDEYDFLHWRRSLEEREALLRDISSRQALGLPLEEPGRYKPGSFFGKDQYDPTSALYQYDYWGEPKNSEISKQERMKDAHNKSIVGKGNVWYDMSYDDAIKQTIEKRKEGSTLASQEEETESEEEEEDDDDFDDFDYSILSDESSIGYSEQQPLVNGTQVLTD

Each binder was assayed against stP8 (cTP8-2xStrep-HA-TurboID-PAP8) (Arabidopsis thaliana) (UniProt Q9XI19) (assay: proximity labelling).

binding | Binder
binds | B1
binds | B2
binds | B3
binds | B4

The binders below were run against T1, stλP8 (cTP8-2xStrep-HA-TurboID-A10 linker-PAP8) (Arabidopsis thaliana) (assay: proximity labelling).

binding | Binder
binds | B1
binds | B2
binds | B3
binds | B4

The binders below were run against T2, sP8 (cTP8-2xStrep-PAP8) (Arabidopsis thaliana) (assay: affinity purification with mass spectrometry).

binding | Binder
binds | B1
binds | B2
binds | B3
binds | B4

Each binder was assayed against stP8 (cTP8-2xStrep-HA-TurboID-PAP8) (Arabidopsis thaliana) (UniProt Q9XI19) (assay: affinity purification with mass spectrometry).

binding | Binder
binds | B1
binds | B2
binds | B3
binds | B4

These binders were tested against T1, stλP8 (cTP8-2xStrep-HA-TurboID-A10 linker-PAP8) (Arabidopsis thaliana) (assay: affinity purification with mass spectrometry).

binding | Binder
binds | B1
binds | B2
binds | B3
binds | B4
